In PMC12147715:
No constants are given. Whether binding was seen depends on the method and setting. In cells and extracts the contact can be indirect. Some binding calls cover weakened binding; strength is not graded here. Sequences can lack the tags named with a protein.

Tests used:
[1] = target: T1, GST–Ccdc13 (mouse) (mouse) (UniProt D3YV10); experiment: pull-down; in vitro GST pull-down, GST-Ccdc13 (mouse) with mouse Spef1
T1 sequence: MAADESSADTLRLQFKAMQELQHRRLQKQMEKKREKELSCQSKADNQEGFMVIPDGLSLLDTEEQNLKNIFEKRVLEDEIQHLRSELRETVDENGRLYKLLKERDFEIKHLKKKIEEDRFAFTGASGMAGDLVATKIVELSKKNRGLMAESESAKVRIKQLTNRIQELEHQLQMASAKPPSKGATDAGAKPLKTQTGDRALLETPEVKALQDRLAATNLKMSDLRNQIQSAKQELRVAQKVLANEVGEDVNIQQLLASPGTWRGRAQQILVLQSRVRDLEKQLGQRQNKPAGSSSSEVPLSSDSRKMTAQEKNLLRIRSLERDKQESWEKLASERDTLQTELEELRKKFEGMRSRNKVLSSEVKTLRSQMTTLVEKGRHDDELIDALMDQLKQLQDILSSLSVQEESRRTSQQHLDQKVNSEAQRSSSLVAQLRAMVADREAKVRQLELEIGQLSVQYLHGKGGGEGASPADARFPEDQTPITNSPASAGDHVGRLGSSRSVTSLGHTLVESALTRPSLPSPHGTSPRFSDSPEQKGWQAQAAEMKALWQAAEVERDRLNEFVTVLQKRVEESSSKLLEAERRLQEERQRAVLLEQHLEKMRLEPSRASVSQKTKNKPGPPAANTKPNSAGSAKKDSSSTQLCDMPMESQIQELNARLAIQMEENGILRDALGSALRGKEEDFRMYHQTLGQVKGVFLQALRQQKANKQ

[2] = target: T2, GFP–Spef1 (mouse) (mouse) (UniProt Q99JL1); experiment: co-IP; proteins transiently expressed in HEK293T cells, then co-immunoprecipitation
T2 sequence: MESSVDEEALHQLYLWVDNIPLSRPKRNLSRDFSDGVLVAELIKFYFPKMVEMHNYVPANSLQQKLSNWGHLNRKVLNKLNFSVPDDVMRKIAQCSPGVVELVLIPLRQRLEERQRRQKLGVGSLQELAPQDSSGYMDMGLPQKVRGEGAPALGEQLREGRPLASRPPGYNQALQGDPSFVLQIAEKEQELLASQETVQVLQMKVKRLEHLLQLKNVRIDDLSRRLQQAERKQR

| Binder | binding [1] | binding [2] |
| --- | --- | --- |
| Mouse Spef1, protein of the GST pull-down (protein, UniProt Q99JL1 1-234) MESSVDEEALHQLYLWVDNIPLSRPKRNLSRDFSDGVLVAELIKFYFPKMVEMHNYVPANSLQQKLSNWGHLNRKVLNKLNFSVPDDVMRKIAQCSPGVVELVLIPLRQRLEERQRRQKLGVGSLQELAPQDSSGYMDMGLPQKVRGEGAPALGEQLREGRPLASRPPGYNQALQGDPSFVLQIAEKEQELLASQETVQVLQMKVKRLEHLLQLKNVRIDDLSRRLQQAERKQR | binds |  |
| Mouse Ccdc13 expressed in HEK293T cells (protein, UniProt D3YV10 1-709) MAADESSADTLRLQFKAMQELQHRRLQKQMEKKREKELSCQSKADNQEGFMVIPDGLSLLDTEEQNLKNIFEKRVLEDEIQHLRSELRETVDENGRLYKLLKERDFEIKHLKKKIEEDRFAFTGASGMAGDLVATKIVELSKKNRGLMAESESAKVRIKQLTNRIQELEHQLQMASAKPPSKGATDAGAKPLKTQTGDRALLETPEVKALQDRLAATNLKMSDLRNQIQSAKQELRVAQKVLANEVGEDVNIQQLLASPGTWRGRAQQILVLQSRVRDLEKQLGQRQNKPAGSSSSEVPLSSDSRKMTAQEKNLLRIRSLERDKQESWEKLASERDTLQTELEELRKKFEGMRSRNKVLSSEVKTLRSQMTTLVEKGRHDDELIDALMDQLKQLQDILSSLSVQEESRRTSQQHLDQKVNSEAQRSSSLVAQLRAMVADREAKVRQLELEIGQLSVQYLHGKGGGEGASPADARFPEDQTPITNSPASAGDHVGRLGSSRSVTSLGHTLVESALTRPSLPSPHGTSPRFSDSPEQKGWQAQAAEMKALWQAAEVERDRLNEFVTVLQKRVEESSSKLLEAERRLQEERQRAVLLEQHLEKMRLEPSRASVSQKTKNKPGPPAANTKPNSAGSAKKDSSSTQLCDMPMESQIQELNARLAIQMEENGILRDALGSALRGKEEDFRMYHQTLGQVKGVFLQALRQQKANKQ |  | binds |
